Measured values as given in patent US20070178575A1, “Identification Of A Nitrilase From B. Japonicum By Rational Genome Mining And Methods Of Use” (priority 2005, published 2007).

Experiment: Effects of temperature, pH and organic solvents on nitrilase activity
Assay type: biochemical
Description: For the determination of temperature effect, a mixture of nitrilase (0.5 mg) with benzyl cyanide (50 mM) in 1.0 ml of potassium phosphate buffer (100 mM, pH 7.1) was incubated at 25° C., 30° C., 37° C. and 45° C., respectively. Aliquots (100 μl) were taken after 1, 2, 4, and 16 hrs intervals, and acidified with 10 μl of 1M HC1. The formed phenylacetic acid was extracted into 200 μl of tert-butyl methyl ether, dried over anhydrous sodium sulfate, and quantified by GC analysis after converting to methyl ester with diazomethane.
The pH effect was studied using the following buffer: sodium citrate buffer (pH 4.91 and 5.44), potassium phosphate buffer (pH 6.07, 6.52, 7.10, 7.58, 7.98 and 8.49) and sodium bicarbonate buffer (pH 8.98). A mixture of nitrilase (0.5 mg) with benzyl cyanide (50 mM) in 1.0 ml of the respective buffer (100 mM) was incubated at 30° C. […] The formed phenylacetic acid was extracted into 200 μl of tert-butyl methyl ether, dried over anhydrous sodium sulfate, and quantified by GC analysis after converting to methyl ester with diazomethane.
The organic solvent effects were evaluated with dimethyl sulfoxide (DMSO), tert-butyl methyl ether, hexane, toluene and butyl acetate. […] The formed phenylacetic acid was extracted into 1 ml of tert-butyl methyl ether, dried over anhydrous sodium sulfate, and quantified by GC analysis after converting to methyl ester with diazomethane.

In the case of “nitrilase bll6402: nitrilase (mandelonitrile hydrolase) from Bradyrhizobium japonicum USDA110, amino acid SEQ ID NO: 2, expressed in E. coli”, the “time the nitrilase was active at 45° C.” value (45° C., pH 7.1, phenylacetonitrile) is reported as “at least 2 hours” and the temperature optimum (phenylacetonitrile 50 mM, pH 7.1) is reported as at least 45 °C.
